# Test results as given in patent US20240101605A1.
# Amino acid sequences for entries named in this document (tags omitted). A change or cut given only in a name is not applied to a line headed by its entry.
# UniProt Q07108: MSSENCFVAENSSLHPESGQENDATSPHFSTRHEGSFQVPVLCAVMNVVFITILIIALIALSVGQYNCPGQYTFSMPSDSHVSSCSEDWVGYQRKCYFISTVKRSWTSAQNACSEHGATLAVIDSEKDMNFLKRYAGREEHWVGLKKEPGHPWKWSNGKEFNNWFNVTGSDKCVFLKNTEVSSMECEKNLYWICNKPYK
# Results are given in words; binding and its absence hold for the method and conditions named. Some binding calls cover weakened binding; strength is not graded here.
# B1: ZC69078 (designed binder)
# Z variant displayed on E. coli cells: VDNKFNKEFYHAMKEILKLPNLNKYQKEAFKTSLKDDPSQSSELLSEAKQLNDSQAPK
# Target: extracellular domain from human CD69 (human) (UniProt Q07108)
# Assay: flow cytometry of the E. coli-displayed Z variant library after one round of MACS and three rounds of FACS; biotinylated hCD69 detected with a fluorescent streptavidin or neutravidin conjugate, surface expression with HSA-Alexa 647; the population is a library, and the gated cloud is assigned to ZC69078 by sequencing of 100 clones
binder,measurement,value
B1,binding,binds
